# The list shows a part of the results. Single values are uncertain, as repeats are few or missing.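 Cells were imaged in 1,536-well plates, and nuclei stained with an antibody against cleaved PARP were counted against all DNA-stained nuclei to give the apoptosis fraction. Screening doses were chosen to leave most cells alive, and resting and induced cleaved-PARP levels differ strongly between cell lines.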
# How the values were obtained:
# Assay in all cases: cleaved PARP positive nuclei fraction relative to DMSO control; melanoma cells; higher = more apoptosis
# Settings in all cases: library dose: low library concentration; 72 h
# 501Mel = system: 501Mel
# A101D = system: A101D
# A2058 = system: A2058
# A375 = system: A375
# C32 = system: C32
# CBRC013 = system: CBRC013 (line from a melanoma biopsy)
# CBRC014 = system: CBRC014 (line from a melanoma biopsy)
# CBRC016 = system: CBRC016 (line from a melanoma biopsy)
# CBRC017 = system: CBRC017 (line from a melanoma biopsy)
SMILES,cleaved PARP positive nuclei fraction (501Mel) [%],cleaved PARP positive nuclei fraction (A101D) [%],cleaved PARP positive nuclei fraction (A2058) [%],cleaved PARP positive nuclei fraction (A375) [%],cleaved PARP positive nuclei fraction (C32) [%],cleaved PARP positive nuclei fraction (CBRC013) [%],cleaved PARP positive nuclei fraction (CBRC014) [%],cleaved PARP positive nuclei fraction (CBRC016) [%],cleaved PARP positive nuclei fraction (CBRC017) [%]
"C[C@]1(c2nc3c(C(N)=O)cccc3[nH]2)CCCN1 [Veliparib] + Oc1nc(-c2ccc(C(F)(F)F)cc2)nc2c1CSCC2 [XAV939] (first compound 1.4 µM, partner dose 2 µM)",174,70.1,244,86.7,69.2,68.1,114,36.2,84.7
"Cn1cncc1[C@@](N)(c1ccc(Cl)cc1)c1ccc2c(c1)c(-c1cccc(Cl)c1)cc(=O)n2C [tipifarnib] + COC(=O)c1sccc1S(=O)(=O)Nc1ccc(Nc2ccccc2)cc1OC [GSK0660] (first compound 0.01 µM, partner dose 1 µM)",87.1,168,71.8,113,64.8,177,97.2,23.7,180
"Cn1c(Nc2ccc(C(F)(F)F)cc2)nc2cc(Oc3ccnc(-c4ncc(C(F)(F)F)[nH]4)c3)ccc21 + O=C(Nc1ccccc1)c1cc([N+](=O)[O-])ccc1Cl [GW9662] (first compound 0.08 µM, partner dose 2 µM)",251,231,133,214,143,135,114,109,88.2
"C#Cc1cccc(Nc2ncnc3cc(OCCOC)c(OCCOC)cc23)c1 [erlotinib] + O=c1cc(-c2cccc3c2Sc2ccccc2S3)oc(N2CCOCC2)c1 [KU55933] (first compound 0.8 µM, partner dose 1 µM)",243,131,114,112,80.8,206,90.3,49,85.2
"OCCn1cc(-c2cnc3nnn(Cc4ccc5ncccc5c4)c3n2)cn1 + Cc1cc([N+](=O)[O-])ccc1NS(=O)(=O)c1cc(Cl)ccc1Cl [FH535] (first compound 1 µM, partner dose 1 µM)",69.8,237,36.7,95.9,47.2,81.8,136,1610,259
"Cc1cc(N2CCOCC2)cc2[nH]c(-c3c(NC[C@@H](O)c4cccc(Cl)c4)cc[nH]c3=O)nc12 + CCc1ccc(CCOc2ccc(CC3SC(=O)NC3=O)cc2)nc1 [pioglitazone] (first compound 0.2 µM, partner dose 2 µM)",24.9,60.8,262,204,133,46.4,85.6,104,131
"COCC[n+]1c2c(n(Cc3cnccn3)c1C)C(=O)c1ccccc1C2=O + O=C(Nc1ccccc1)c1cc([N+](=O)[O-])ccc1Cl [GW9662] (first compound 0.0004 µM, partner dose 2 µM)",51.7,51.2,129,105,57,566,91.2,103,83.3
"C#Cc1cccc(Nc2ncnc3cc(OCCOC)c(OCCOC)cc23)c1 [erlotinib] + COc1cc(N2CCC(N3CCN(C)CC3)CC2)ccc1Nc1ncc(Cl)c(Nc2ccccc2S(=O)(=O)C(C)C)n1 [NVP-TAE684] (first compound 0.8 µM, partner dose 0.08 µM)",102,122,89.3,355,235,141,74.3,50.6,185
"O=C(CCCCCCC(=O)Nc1ccccc1)NO [vorinostat] + Oc1nc(-c2ccc(C(F)(F)F)cc2)nc2c1CSCC2 [XAV939] (first compound 0.08 µM, partner dose 2 µM)",38.6,233,215,42.9,60.5,264,93.4,96,133
"Cn1c(Nc2ccc(C(F)(F)F)cc2)nc2cc(Oc3ccnc(-c4ncc(C(F)(F)F)[nH]4)c3)ccc21 + COc1ccc2c(c1)CCC1C2CCC2(C)C(NCCCCCCN3C(=O)C=CC3=O)CCC12 [U73122] (first compound 0.08 µM, partner dose 0.4 µM)",243,90.5,172,752,54.6,138,135,496,126
"Cc1cc(N2CCOCC2)cc2[nH]c(-c3c(NC[C@@H](O)c4cccc(Cl)c4)cc[nH]c3=O)nc12 + COc1ccc(-c2ccc3c(N4CCOCC4)nc(N4C[C@@H](C)O[C@@H](C)C4)nc3n2)cc1CO [KU0063794] (first compound 0.2 µM, partner dose 0.02 µM)",82.6,65.1,174,226,73.3,86.2,102,67.5,75.4
"Cn1cncc1[C@@](N)(c1ccc(Cl)cc1)c1ccc2c(c1)c(-c1cccc(Cl)c1)cc(=O)n2C [tipifarnib] + COc1ccc2c(c1)CCC1C2CCC2(C)C(NCCCCCCN3C(=O)C=CC3=O)CCC12 [U73122] (first compound 0.01 µM, partner dose 0.4 µM)",64.3,240,280,709,54.2,596,120,177,81.2
"C[C@]1(c2nc3c(C(N)=O)cccc3[nH]2)CCCN1 [Veliparib] + O=S(=O)(c1ccccc1)N(CC(F)(F)F)c1ccc(C(O)(C(F)(F)F)C(F)(F)F)cc1 [T0901317] (first compound 1.4 µM, partner dose 1.4 µM)",178,57,45,212,104,317,112,21.2,90.6
"C=CCn1c(=O)c2cnc(Nc3ccc(N4CCN(C)CC4)cc3)nc2n1-c1cccc(C(C)(C)O)n1 + O=C(Nc1ccccc1)c1cc([N+](=O)[O-])ccc1Cl [GW9662] (first compound 0.02 µM, partner dose 2 µM)",74.6,179,154,312,142,457,104,68.9,94.6
"C[C@]1(c2nc3c(C(N)=O)cccc3[nH]2)CCCN1 [Veliparib] + O=C1NC(=O)/C(=C/c2ccc(-c3ccc(F)cc3O)o2)S1 [AS252424] (first compound 1.4 µM, partner dose 1 µM)",110,124,348,92.7,211,88.8,106,60.4,115
"Cc1nc(Nc2ncc(C(=O)Nc3c(C)cccc3Cl)s2)cc(N2CCN(CCO)CC2)n1 [dasatanib] + O=S(=O)(c1ccccc1)N(CC(F)(F)F)c1ccc(C(O)(C(F)(F)F)C(F)(F)F)cc1 [T0901317] (first compound 0.004 µM, partner dose 1.4 µM)",98.4,107,138,164,248,375,175,73.5,90.6
"NC(=O)Nc1cc(-c2cccc(F)c2)sc1C(=O)N[C@H]1CCCNC1 + COc1ccc2c(c1)CCC1C2CCC2(C)C(NCCCCCCN3C(=O)C=CC3=O)CCC12 [U73122] (first compound 0.02 µM, partner dose 0.4 µM)",87.5,58,42.7,62.4,198,118,131,70.2,91.3
"OCCn1cc(-c2cnc3nnn(Cc4ccc5ncccc5c4)c3n2)cn1 + O=C(O)C(=O)Nc1sc2c(c1C(=O)O)CCNC2 [TCS401] (first compound 1 µM, partner dose 1.66667 µM)",96.6,108,113,30.1,126,229,89.9,104,156
"C=CCn1c(=O)c2cnc(Nc3ccc(N4CCN(C)CC4)cc3)nc2n1-c1cccc(C(C)(C)O)n1 + COc1ccc(-c2ccc3c(N4CCOCC4)nc(N4C[C@@H](C)O[C@@H](C)C4)nc3n2)cc1CO [KU0063794] (first compound 0.02 µM, partner dose 0.02 µM)",74.4,211,143,276,45.2,1010,126,110,95.1
"NC(=O)Nc1cc(-c2cccc(F)c2)sc1C(=O)N[C@H]1CCCNC1 + COc1ccc(COc2ccc(Cc3cnc(N)nc3N)cc2OC)cc1 [GW2580] (first compound 0.02 µM, partner dose 1 µM)",164,48.9,154,4770,43.6,60.1,98.8,117,86.7
"Cn1cncc1[C@@](N)(c1ccc(Cl)cc1)c1ccc2c(c1)c(-c1cccc(Cl)c1)cc(=O)n2C [tipifarnib] + Cn1cc(/C=C2\C(=O)Nc3cccnc32)c2ccccc21 [GW441756] (first compound 0.01 µM, partner dose 0.4 µM)",56.4,178,67.8,141,73.9,366,184,91.1,72.1
"CO[C@@H]1[C@H](N(C)C(=O)c2ccccc2)C[C@H]2O[C@]1(C)n1c3ccccc3c3c4c(c5c6ccccc6n2c5c31)C(=O)NC4 [Midostaurin] + CC(C)CCN1c2nc(Nc3cc(F)c(O)c(F)c3)ncc2N(C)C(=O)C1C [BID1870] (first compound 0.08 µM, partner dose 0.2 µM)",89,71.2,262,94.2,46.6,218,140,128,81.8
"C#Cc1cccc(Nc2ncnc3cc(OCCOC)c(OCCOC)cc23)c1 [erlotinib] + CCCCCCCCCCCC1=C(O)C(=O)C=C(O)C1=O [Embelin] (first compound 0.8 µM, partner dose 1.2 µM)",33.7,219,161,166,48.4,144,96.2,71.8,77.2

# Another view of part of the listing above.
SMILES | cleaved PARP positive nuclei fraction (501Mel) [%] | cleaved PARP positive nuclei fraction (A101D) [%] | cleaved PARP positive nuclei fraction (A2058) [%] | cleaved PARP positive nuclei fraction (A375) [%] | cleaved PARP positive nuclei fraction (C32) [%] | cleaved PARP positive nuclei fraction (CBRC013) [%] | cleaved PARP positive nuclei fraction (CBRC014) [%] | cleaved PARP positive nuclei fraction (CBRC016) [%] | cleaved PARP positive nuclei fraction (CBRC017) [%]
O=C(CCCCCCC(=O)Nc1ccccc1)NO [vorinostat] + Oc1nc(-c2ccc(C(F)(F)F)cc2)nc2c1CSCC2 [XAV939] (first compound 0.08 µM, partner dose 2 µM) | 38.6 | 233 | 215 | 42.9 | 60.5 | 264 | 93.4 | 96 | 133
Cn1cncc1[C@@](N)(c1ccc(Cl)cc1)c1ccc2c(c1)c(-c1cccc(Cl)c1)cc(=O)n2C [tipifarnib] + COc1ccc2c(c1)CCC1C2CCC2(C)C(NCCCCCCN3C(=O)C=CC3=O)CCC12 [U73122] (first compound 0.01 µM, partner dose 0.4 µM) | 64.3 | 240 | 280 | 709 | 54.2 | 596 | 120 | 177 | 81.2
C=CCn1c(=O)c2cnc(Nc3ccc(N4CCN(C)CC4)cc3)nc2n1-c1cccc(C(C)(C)O)n1 + O=C(Nc1ccccc1)c1cc([N+](=O)[O-])ccc1Cl [GW9662] (first compound 0.02 µM, partner dose 2 µM) | 74.6 | 179 | 154 | 312 | 142 | 457 | 104 | 68.9 | 94.6
NC(=O)Nc1cc(-c2cccc(F)c2)sc1C(=O)N[C@H]1CCCNC1 + COc1ccc2c(c1)CCC1C2CCC2(C)C(NCCCCCCN3C(=O)C=CC3=O)CCC12 [U73122] (first compound 0.02 µM, partner dose 0.4 µM) | 87.5 | 58 | 42.7 | 62.4 | 198 | 118 | 131 | 70.2 | 91.3
C=CCn1c(=O)c2cnc(Nc3ccc(N4CCN(C)CC4)cc3)nc2n1-c1cccc(C(C)(C)O)n1 + COc1ccc(-c2ccc3c(N4CCOCC4)nc(N4C[C@@H](C)O[C@@H](C)C4)nc3n2)cc1CO [KU0063794] (first compound 0.02 µM, partner dose 0.02 µM) | 74.4 | 211 | 143 | 276 | 45.2 | 1010 | 126 | 110 | 95.1

# From the supplement of paper PMC4604168 (melanoma cell lines)
